Measurements taken from US5824529.
The exact form of at least one protein or probe is not confirmed. For part of these data: A negative result means that nothing was seen under these conditions.

Columns and labels:
[1] = tested on: PshAI restriction endonuclease (native) (Plesiomonas shigelloides); test: enzyme reaction in vitro; conditions: purified native protein, protein details: N-terminal sequence SEQ ID NO:16
[2] = tested on: PshAI methylase (pSX34PshAIM1 / pPshAIM19) (Plesiomonas shigelloides); test: activity in cells; conditions: modifies PshAI sites in vivo, making the plasmid resistant to PshAI; protein in cells; protein details: expressed in E. coli; only the site is given

| Sequence | activity on this sequence ([1]; PshAI methylase-modified (m6A-gamma-type), plasmid fully protected against PshAI cleavage) | activity on this sequence ([1]; plasmid digestion with PshAI, NEBuffer 2, 30 C in the library selection) | activity on this sequence [2] |
| --- | --- | --- | --- |
| GACGGCCGTC (double strand) | not active |  |  |
| GACGGCCGTC (double strand) [PshAI linker site inserted in pUC19 (pUC19PshAI)] |  | active | active |
